# Positions count from the first letter of the chain named. The list shows a part of the results. For some assays here: At the low end of the ranking, values are background and their order means little.
# Key:
# Conditions in all cases: yeast three-hybrid, YBZ-1, SC-Leu-His + 0.5 mM 3-AT, 4 days
# [1] = molecular target: T1, PUM1 PUF domain R4-GPA N971G + H972P + Q975A (UniProt Q14671)
# T1 sequence: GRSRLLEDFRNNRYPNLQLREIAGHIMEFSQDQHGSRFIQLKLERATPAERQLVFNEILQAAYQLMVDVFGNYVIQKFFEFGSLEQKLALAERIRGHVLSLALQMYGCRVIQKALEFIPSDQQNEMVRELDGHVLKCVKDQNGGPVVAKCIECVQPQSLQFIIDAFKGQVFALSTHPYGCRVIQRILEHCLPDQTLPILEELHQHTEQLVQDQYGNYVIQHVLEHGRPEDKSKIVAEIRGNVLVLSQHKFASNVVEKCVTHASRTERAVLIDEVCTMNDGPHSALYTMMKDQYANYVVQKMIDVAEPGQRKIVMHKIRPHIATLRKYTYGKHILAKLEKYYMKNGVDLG
# [2] = molecular target: T2, PUM1 PUF domain R4-GPC N971G + H972P + Q975C (UniProt Q14671)
# T2 sequence: T1 sequence with A148C
# [3] = molecular target: T3, PUM1 PUF domain R4-GPG N971G + H972P + Q975G (UniProt Q14671)
# T3 sequence: T1 sequence with A148G
# [4] = molecular target: T4, PUM1 PUF domain R4-GPH N971G + H972P + Q975H (UniProt Q14671)
# T4 sequence: T1 sequence with A148H
# [5] = molecular target: T5, PUM1 PUF domain R4-GPN N971G + H972P + Q975N (UniProt Q14671)
# T5 sequence: T1 sequence with A148N
# [6] = molecular target: T6, PUM1 PUF domain R4-GPQ N971G + H972P (UniProt Q14671)
# T6 sequence: T1 sequence with A148Q
# [7] = molecular target: T7, PUM1 PUF domain R4-GPR N971G + H972P + Q975R (UniProt Q14671)
# T7 sequence: T1 sequence with A148R
# [8] = molecular target: T8, PUM1 PUF domain R4-GPS N971G + H972P + Q975S (UniProt Q14671)
# T8 sequence: T1 sequence with A148S
# [9] = molecular target: T9, PUM1 PUF domain R4-GPT N971G + H972P + Q975T (UniProt Q14671)
# T9 sequence: T1 sequence with A148T
# [10] = molecular target: T10, PUM1 PUF domain R4-GPY N971G + H972P + Q975Y (UniProt Q14671)
# T10 sequence: T1 sequence with A148Y
# [11] = molecular target: T11, PUM1 PUF domain R4-GQG N971G + H972Q + Q975G (UniProt Q14671)
# T11 sequence: T1 sequence with P145Q, A148G
# [12] = molecular target: T12, PUM1 PUF domain R4-GQR N971G + H972Q + Q975R (UniProt Q14671)
# T12 sequence: T1 sequence with P145Q, A148R
# [13] = molecular target: T13, PUM1 PUF domain R4-GQS N971G + H972Q + Q975S (UniProt Q14671)
# T13 sequence: T1 sequence with P145Q, A148S
# [14] = molecular target: T14, PUM1 PUF domain R4-GRA N971G + H972R + Q975A (Homo sapiens) (UniProt Q14671)
# T14 sequence: T1 sequence with P145R
# [15] = molecular target: T15, PUM1 PUF domain R4-GRC N971G + H972R + Q975C (Homo sapiens) (UniProt Q14671)
# T15 sequence: T1 sequence with P145R, A148C
# [16] = molecular target: T16, PUM1 PUF domain R4-GRG N971G + H972R + Q975G (Homo sapiens) (UniProt Q14671)
# T16 sequence: T1 sequence with P145R, A148G
# [17] = molecular target: T17, PUM1 PUF domain R4-GRI N971G + H972R + Q975I (UniProt Q14671)
# T17 sequence: T1 sequence with P145R, A148I
# [18] = molecular target: T18, PUM1 PUF domain R4-GRN N971G + H972R + Q975N (UniProt Q14671)
# T18 sequence: T1 sequence with P145R, A148N
# [19] = molecular target: T19, PUM1 PUF domain R4-GRR N971G + H972R + Q975R (UniProt Q14671)
# T19 sequence: T1 sequence with P145R, A148R
# [20] = molecular target: T20, PUM1 PUF domain R4-GRS N971G + H972R + Q975S (Homo sapiens) (UniProt Q14671)
# T20 sequence: T1 sequence with P145R, A148S
# [21] = molecular target: T21, PUM1 PUF domain R4-GSQ N971G + H972S (UniProt Q14671)
# T21 sequence: T1 sequence with P145S, A148Q
# [22] = molecular target: T22, PUM1 PUF domain R4-GWP N971G + H972W + Q975P (UniProt Q14671)
# T22 sequence: T1 sequence with P145W, A148P
# [23] = molecular target: T23, PUM1 PUF domain R4-GYP N971G + H972Y + Q975P (UniProt Q14671)
# T23 sequence: T1 sequence with P145Y, A148P
# [24] = molecular target: T24, PUM1 PUF domain R4-HNV N971H + H972N + Q975V (UniProt Q14671)
# T24 sequence: T1 sequence with G144H, P145N, A148V
# [25] = molecular target: T25, PUM1 PUF domain R4-HRG N971H + H972R + Q975G (UniProt Q14671)
# T25 sequence: T1 sequence with G144H, P145R, A148G
# [26] = molecular target: T26, PUM1 PUF domain R4-HWP N971H + H972W + Q975P (UniProt Q14671)
# T26 sequence: T1 sequence with G144H, P145W, A148P
# [27] = molecular target: T27, PUM1 PUF domain R4-INC N971I + H972N + Q975C (UniProt Q14671)
# T27 sequence: T1 sequence with G144I, P145N, A148C
# [28] = molecular target: T28, PUM1 PUF domain R4-LGC N971L + H972G + Q975C (UniProt Q14671)
# T28 sequence: T1 sequence with G144L, P145G, A148C
# [29] = molecular target: T29, PUM1 PUF domain R4-LGL N971L + H972G + Q975L (UniProt Q14671)
# T29 sequence: T1 sequence with G144L, P145G, A148L
# [30] = molecular target: T30, PUM1 PUF domain R4-LGM N971L + H972G + Q975M (UniProt Q14671)
# T30 sequence: T1 sequence with G144L, P145G, A148M
# [31] = molecular target: T31, PUM1 PUF domain R4-LHR N971L + Q975R (UniProt Q14671)
# T31 sequence: T1 sequence with G144L, P145H, A148R
# [32] = molecular target: T32, PUM1 PUF domain R4-LNA N971L + H972N + Q975A (UniProt Q14671)
# T32 sequence: T1 sequence with G144L, P145N
# [33] = molecular target: T33, PUM1 PUF domain R4-LNC N971L + H972N + Q975C (UniProt Q14671)
# T33 sequence: T1 sequence with G144L, P145N, A148C
# [34] = molecular target: T34, PUM1 PUF domain R4-LRC N971L + H972R + Q975C (UniProt Q14671)
# T34 sequence: T1 sequence with G144L, P145R, A148C
# [35] = molecular target: T35, PUM1 PUF domain R4-MLC N971M + H972L + Q975C (UniProt Q14671)
# T35 sequence: T1 sequence with G144M, P145L, A148C
# [36] = molecular target: T36, PUM1 PUF domain R4-MNR N971M + H972N + Q975R (UniProt Q14671)
# T36 sequence: T1 sequence with G144M, P145N, A148R
# [37] = molecular target: T37, PUM1 PUF domain R4-MNV N971M + H972N + Q975V (UniProt Q14671)
# T37 sequence: T1 sequence with G144M, P145N, A148V
# [38] = molecular target: T38, PUM1 PUF domain R4-MPG N971M + H972P + Q975G (UniProt Q14671)
# T38 sequence: T1 sequence with G144M, A148G
# [39] = molecular target: T39, PUM1 PUF domain R4-MPH N971M + H972P + Q975H (UniProt Q14671)
# T39 sequence: T1 sequence with G144M, A148H
# [40] = molecular target: T40, PUM1 PUF domain R4-MPS N971M + H972P + Q975S (UniProt Q14671)
# T40 sequence: T1 sequence with G144M, A148S
# [41] = molecular target: T41, PUM1 PUF domain R4-MPV N971M + H972P + Q975V (UniProt Q14671)
# T41 sequence: T1 sequence with G144M, A148V
sequence,measurement,setting,value
GGCUAGAACUAGUGGAUCCCCCGGCGCCCGGCGGCUCGAGCCCGGGUAAGUGUAGAUAGUCUGCAUGCCGCCGGGCGCCAUGCCUGCAGGUCGACUCUAGAAAACAUG,binding signal (log2 enrichment (interaction score)),[1],< -8.22
same,binding signal (log2 enrichment (interaction score)),[2],< -6.02
same,binding signal (log2 enrichment (interaction score)),[3],< -8.64
same,binding signal (log2 enrichment (interaction score)),[4],< -6.65
same,binding signal (log2 enrichment (interaction score)),[5],< -5.44
same,binding signal (log2 enrichment (interaction score)),[6],< -6.18
same,binding signal (log2 enrichment (interaction score)),[7],< -8.3
same,binding signal (log2 enrichment (interaction score)),[8],< -7.29
same,binding signal (log2 enrichment (interaction score)),[9],< -5.78
same,binding signal (log2 enrichment (interaction score)),[10],< -5.6
same,binding signal (log2 enrichment (interaction score)),[11],< -6.89
same,binding signal (log2 enrichment (interaction score)),[12],< -6.61
same,binding signal (log2 enrichment (interaction score)),[13],< -7.69
same,binding signal (log2 enrichment (interaction score)),[14],-3.02
same,binding signal (log2 enrichment (interaction score)),[15],-1.15
same,binding signal (log2 enrichment (interaction score)),[16],-4.17
same,binding signal (log2 enrichment (interaction score)),[17],-5.83
same,binding signal (log2 enrichment (interaction score)),[18],< -5.57
same,binding signal (log2 enrichment (interaction score)),[19],-7.51
same,binding signal (log2 enrichment (interaction score)),[20],-0.94
same,binding signal (log2 enrichment (interaction score)),[21],< -7.05
same,binding signal (log2 enrichment (interaction score)),[22],< -6.3
same,binding signal (log2 enrichment (interaction score)),[23],< -6.8
same,binding signal (log2 enrichment (interaction score)),[24],< -5.74
same,binding signal (log2 enrichment (interaction score)),[25],< -5.85
same,binding signal (log2 enrichment (interaction score)),[26],< -6.3
same,binding signal (log2 enrichment (interaction score)),[27],< -4.9
same,binding signal (log2 enrichment (interaction score)),[28],< -8.45
same,binding signal (log2 enrichment (interaction score)),[29],< -8.6
same,binding signal (log2 enrichment (interaction score)),[30],< -6.61
same,binding signal (log2 enrichment (interaction score)),[31],< -6.15
same,binding signal (log2 enrichment (interaction score)),[32],< -6.34
same,binding signal (log2 enrichment (interaction score)),[33],< -7.29
same,binding signal (log2 enrichment (interaction score)),[34],< -6.8
same,binding signal (log2 enrichment (interaction score)),[35],< -5.51
same,binding signal (log2 enrichment (interaction score)),[36],< -6.13
same,binding signal (log2 enrichment (interaction score)),[37],< -5.62
same,binding signal (log2 enrichment (interaction score)),[38],< -5.57
same,binding signal (log2 enrichment (interaction score)),[39],< -7.23
same,binding signal (log2 enrichment (interaction score)),[40],< -6.2
same,binding signal (log2 enrichment (interaction score)),[41],< -5.69

# A run of entries from the list above:
sequence,measurement,setting,value
GGCUAGAACUAGUGGAUCCCCCGGCGCCCGGCGGCUCGAGCCCGGGUAAGUGUAGAUAGUCUGCAUGCCGCCGGGCGCCAUGCCUGCAGGUCGACUCUAGAAAACAUG,binding signal (log2 enrichment (interaction score)),[20],-0.94
same,binding signal (log2 enrichment (interaction score)),[21],< -7.05
same,binding signal (log2 enrichment (interaction score)),[22],< -6.3
same,binding signal (log2 enrichment (interaction score)),[23],< -6.8

# — PMC8384837
